# According to the supplement of paper PMC8728848:
# The other results are listed elsewhere or left out.
# B1: LysMD3 (Homo sapiens), Q7Z3D4 (protein)
# chain: MAGRHQNRSFPLPGVQSSGQVHAFGNCSDSDILEEDAEVYELRSRGKEKVRRSTSRDRLDDIIVLTKDIQEGDTLNAIALQYCCTVADIKRVNNLISDQDFFALRSIKIPVKKFSSLTETLCPPKGRQTSRHSSVQYSSEQQEILPANDSLAYSDSAGSFLKEVDRDIEQIVKCTDNKRENLNEVVSALTAQQMRFEPDNKNTQRKDPYYGADWGIG
# What was measured:
# Experiment in all cases: glycan array binding signal (z-score within array); higher = stronger binding
# Details in all cases: glycan notation: IUPAC condensed, linker removed
# [1] = target: Neu5Ac(a2-6)Gal(b1-4)GlcNAc(b1-3)Gal(b1-4)GlcNAc(b1-3)GalNAc
# Method in brief: (§1)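 The binding signal is a Z-score computed within each array and averaged over linkers. Arrays of the same protein sequence at different concentrations or buffers were also averaged together. Data originate from 3228 arrays in the Consortium for Functional Glycomics database, kept only where the protein sequence was available.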
# [2] = target: Neu5Ac(a2-6)Gal(b1-4)GlcNAc(b1-3)Gal(b1-4)GlcNAc(b1-3)[Neu5Ac(a2-6)Gal(b1-4)GlcNAc(b1-3)Gal(b1-4)GlcNAc(b1-6)]GalNAc
# Method in brief: as §1
# [3] = target: Neu5Ac(a2-6)Gal(b1-4)GlcNAc(b1-3)Gal(b1-4)GlcNAc(b1-6)[Gal(b1-3)]GalNAc
# Method in brief: as §1
# [4] = target: Neu5Ac(a2-6)Gal(b1-4)GlcNAc(b1-3)Gal(b1-4)[Fuc(a1-3)]GlcNAc(b1-3)Gal(b1-4)[Fuc(a1-3)]GlcNAc
# Method in brief: as §1
# [5] = target: Neu5Ac(a2-6)Gal(b1-4)GlcNAc(b1-3)GalNAc
# Method in brief: as §1
# [6] = target: Neu5Ac(a2-6)Gal(b1-4)GlcNAc(b1-3)[Neu5Ac(a2-6)Gal(b1-4)GlcNAc(b1-6)]GalNAc
# Method in brief: as §1
# [7] = target: Neu5Ac(a2-6)Gal(b1-4)GlcNAc(b1-6)GalNAc
# Method in brief: as §1
# [8] = target: Neu5Ac(a2-6)Gal(b1-4)GlcNAc(b1-6)[Gal(b1-3)GlcNAc(b1-3)]Gal(b1-4)Glc
# Method in brief: as §1
# [9] = target: Neu5Ac(a2-6)Gal(b1-4)GlcNAc(b1-6)[Gal(b1-3)]GalNAc
# Method in brief: as §1
# [10] = target: Neu5Ac(a2-6)Gal(b1-4)GlcNAc6S
# Method in brief: as §1
# [11] = target: Neu5Ac(a2-6)GalNAc
# Method in brief: as §1
# [12] = target: Neu5Ac(a2-6)GalNAc(b1-4)GlcNAc
# Method in brief: as §1
# [13] = target: Neu5Ac(a2-6)GalNAc(b1-4)GlcNAc6S
# Method in brief: as §1
# [14] = target: Neu5Ac(a2-6)GlcNAc(b1-4)GlcNAc
# Method in brief: as §1
# [15] = target: Neu5Ac(a2-6)GlcNAc(b1-4)GlcNAc(b1-4)GlcNAc
# Method in brief: as §1
# [16] = target: Neu5Ac(a2-8)Neu5Ac
# Method in brief: as §1
# [17] = target: Neu5Ac(a2-8)Neu5Ac(a2-3)Gal(b1-3)GalNAc(b1-4)[Neu5Ac(a2-3)]Gal(b1-4)Glc
# Method in brief: as §1
# [18] = target: Neu5Ac(a2-8)Neu5Ac(a2-3)Gal(b1-3)GalNAc(b1-4)[Neu5Ac(a2-8)Neu5Ac(a2-3)]Gal(b1-4)Glc
# Method in brief: as §1
# [19] = target: Neu5Ac(a2-8)Neu5Ac(a2-3)Gal(b1-4)Glc
# Method in brief: as §1
# [20] = target: Neu5Ac(a2-8)Neu5Ac(a2-3)Gal(b1-4)GlcNAc
# Method in brief: as §1
# [21] = target: Neu5Ac(a2-8)Neu5Ac(a2-3)[Gal(b1-3)GalNAc(b1-4)]Gal(b1-4)Glc
# Method in brief: as §1
# [22] = target: Neu5Ac(a2-8)Neu5Ac(a2-3)[GalNAc(b1-4)]Gal(b1-4)Glc
# Method in brief: as §1
# [23] = target: Neu5Ac(a2-8)Neu5Ac(a2-8)Neu5Ac
# Method in brief: as §1
# [24] = target: Neu5Ac(a2-8)Neu5Ac(a2-8)Neu5Ac(a2-3)Gal(b1-4)Glc
# Method in brief: as §1
# [25] = target: Neu5Ac(a2-8)Neu5Ac(a2-8)Neu5Ac(a2-3)[Gal(b1-3)GalNAc(b1-4)]Gal(b1-4)Glc
# Method in brief: as §1
# [26] = target: Neu5Ac(a2-8)Neu5Ac(a2-8)Neu5Ac(a2-3)[GalNAc(b1-4)]Gal(b1-4)Glc
# Method in brief: as §1
# [27] = target: Neu5Ac(a2-8)Neu5Ac(a2-8)Neu5Ac(a2-8)Neu5Ac(a2-3)[GalNAc(b1-4)]Gal(b1-4)Glc
# Method in brief: as §1
# [28] = target: Neu5Ac(a2-8)Neu5Gc(a2-3)Gal(b1-4)GlcNAc
# Method in brief: as §1
# [29] = target: Neu5Ac(b2-6)Gal(b1-4)GlcNAc
# Method in brief: as §1
# [30] = target: Neu5Ac(b2-6)GalNAc
# Method in brief: as §1
# [31] = target: Neu5Ac9Ac(a2-3)Gal(b1-3)GlcNAc
# Method in brief: as §1
# [32] = target: Neu5Ac9Ac(a2-3)Gal(b1-4)GlcNAc
# Method in brief: as §1
# [33] = target: Neu5Ac9Ac(a2-6)Gal(b1-4)GlcNAc
# Method in brief: as §1
# [34] = target: Neu5Gc(a2-3)Gal(b1-3)GlcNAc
# Method in brief: as §1
# [35] = target: Neu5Gc(a2-3)Gal(b1-3)[Fuc(a1-4)]GlcNAc
# Method in brief: as §1
# [36] = target: Neu5Gc(a2-3)Gal(b1-4)Glc
# Method in brief: as §1
# [37] = target: Neu5Gc(a2-3)Gal(b1-4)GlcNAc
# Method in brief: as §1
# [38] = target: Neu5Gc(a2-3)Gal(b1-4)GlcNAc(b1-3)Gal(b1-4)GlcNAc(b1-2)Man(a1-3)[Neu5Gc(a2-3)Gal(b1-4)GlcNAc(b1-3)Gal(b1-4)GlcNAc(b1-2)Man(a1-6)]Man(b1-4)GlcNAc(b1-4)GlcNAc
# Method in brief: as §1
# [39] = target: Neu5Gc(a2-3)Gal(b1-4)[Fuc(a1-3)]GlcNAc
# Method in brief: as §1
# [40] = target: Neu5Gc(a2-6)Gal(b1-4)GlcNAc
# Method in brief: as §1
# [41] = target: Neu5Gc(a2-6)GalNAc
# Method in brief: as §1
# [42] = target: Neu5Gc(a2-8)Neu5Ac(a2-3)Gal(b1-4)GlcNAc
# Method in brief: as §1
# [43] = target: Neu5Gc(a2-8)Neu5Gc(a2-3)Gal(b1-4)GlcNAc
# Method in brief: as §1
# [44] = target: Neu5Gc(a2-8)Neu5Gc(a2-3)Gal(b1-4)GlcNAc(b1-3)Gal(b1-4)GlcNAc
# Method in brief: as §1
# [45] = target: Neu5Gc(a2-8)Neu5Gc(a2-6)Gal(b1-4)GlcNAc
# Method in brief: as §1
# [46] = target: Neu5Gc(b2-6)Gal(b1-4)GlcNAc
# Method in brief: as §1
binder,measurement,setting,value
B1,glycan array binding signal (z-score),[1],-0.775
same,glycan array binding signal (z-score),[2],-0.5
same,glycan array binding signal (z-score),[3],-0.94
same,glycan array binding signal (z-score),[4],-0.545
same,glycan array binding signal (z-score),[5],-0.316
same,glycan array binding signal (z-score),[6],-0.88
same,glycan array binding signal (z-score),[7],-0.736
same,glycan array binding signal (z-score),[8],0.004
same,glycan array binding signal (z-score),[9],-0.706
same,glycan array binding signal (z-score),[10],-0.863
same,glycan array binding signal (z-score),[11],-0.582
same,glycan array binding signal (z-score),[12],-0.484
same,glycan array binding signal (z-score),[13],-0.178
same,glycan array binding signal (z-score),[14],-0.05
same,glycan array binding signal (z-score),[15],-0.725
same,glycan array binding signal (z-score),[16],-0.273
same,glycan array binding signal (z-score),[17],0.988
same,glycan array binding signal (z-score),[18],1.66
same,glycan array binding signal (z-score),[19],-0.753
same,glycan array binding signal (z-score),[20],-0.512
same,glycan array binding signal (z-score),[21],-0.411
same,glycan array binding signal (z-score),[22],0.512
same,glycan array binding signal (z-score),[23],-0.371
same,glycan array binding signal (z-score),[24],-1.05
same,glycan array binding signal (z-score),[25],-0.812
same,glycan array binding signal (z-score),[26],-0.862
same,glycan array binding signal (z-score),[27],0.551
same,glycan array binding signal (z-score),[28],-0.377
same,glycan array binding signal (z-score),[29],-0.214
same,glycan array binding signal (z-score),[30],-0.267
same,glycan array binding signal (z-score),[31],-0.019
same,glycan array binding signal (z-score),[32],-0.085
same,glycan array binding signal (z-score),[33],0.145
same,glycan array binding signal (z-score),[34],-0.338
same,glycan array binding signal (z-score),[35],-0.44
same,glycan array binding signal (z-score),[36],-0.326
same,glycan array binding signal (z-score),[37],-0.032
same,glycan array binding signal (z-score),[38],1.38
same,glycan array binding signal (z-score),[39],-0.174
same,glycan array binding signal (z-score),[40],-0.344
same,glycan array binding signal (z-score),[41],-0.533
same,glycan array binding signal (z-score),[42],0.016
same,glycan array binding signal (z-score),[43],-0.391
same,glycan array binding signal (z-score),[44],0.616
same,glycan array binding signal (z-score),[45],0.066
same,glycan array binding signal (z-score),[46],-0.533

# A portion of the results above:
binder,measurement,setting,value
B1,glycan array binding signal (z-score),[11],-0.582
same,glycan array binding signal (z-score),[12],-0.484
same,glycan array binding signal (z-score),[13],-0.178
